In PubChem BioAssay AID2417 (National Center for Advancing Translational Sciences (NCATS), 2010):
Out of some 140,000 compounds screened, about 4,300 (3.1%) were called active. Inconclusive results, whose numbers are uncertain, are shown with a selection of clear calls.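 How the source made its calls: active means readout at or below -70, meaning at least 70% loss of cells showing the perinucleolar compartment, a nuclear body marking cancer cells; inconclusive means readout between -30 and a set limit; inactive means the rest.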

Assay: High Content Assay for Compounds that inhibit the Assembly of the Perinucleolar Compartment;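 further: plate controls were DMSO wells for no effect and camptothecin positive control wells for full effect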
Conditions: PC3M PTB-GFP, PNC prevalence imaging, 16 h; at 10 µM; hits give low values
In short: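 Compounds are pinned in duplicate onto adhered PC3M cells stably expressing GFP-tagged PTB and incubated 16 h at 37 C. Cells are then fixed, nuclei stained with Hoechst, and PNC-positive cells counted.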

Row | SMILES | activity change (PNC), negative = inhibition
1 | C=CCSC1=N/C(=C\c2ccsc2)C(=O)S1 | inactive: 34.8%
2 | Cc1cccc(N=C2NN=C(c3ccc4c(c3)OCCO4)CS2)c1 | inconclusive: -69.7%
3 | O=C(CCN1C(=O)C2C3CC(C(Br)C3Br)C2C1=O)OCC(=O)c1ccccc1 (stereo not given) | inconclusive: -30.4%
4 | COc1ccc(OC)c(S(=O)(=O)NC(C)(C)C)c1 | inconclusive: -46.4%
5 | CC(=O)Nc1ccccc1OCC(=O)c1cc(C)n(Cc2cccs2)c1C | inconclusive: -62.3%
6 | Cc1ccc(S(=O)(=O)/N=C(/Nc2ccccn2)c2ccc(Cl)cc2)cc1 | active: -85%
7 | Cc1ccc(N2CC(C(=O)Nc3nnc(SCC(=O)Nc4cc(C)on4)s3)CC2=O)cc1 (stereo not given) | inconclusive: -74.7%
8 | OCCNCCOc1ccc(Cl)c(Cl)c1 | inactive: 32.5%
9 | Cc1cccc(NC(=S)NNC(=O)c2csc3c2CCC(C)C3)c1 (stereo not given) | inactive: -16.5%
10 | NS(=O)(=O)c1cccn1-c1ncc(C(F)(F)F)cc1Cl | inconclusive: -55.8%
11 | COc1ccc(-n2c(Cc3cccn3C)nnc2SCC(=O)N2CCC(C)CC2)cc1 | inconclusive: -48.6%
12 | C#CCOc1ccc(/C=N/O)cc1Cl | inconclusive: -35.7%
13 | CCn1c(C)cc(/C=C2\NC(=O)N(Cc3ccc(Cl)cc3)C2=O)c1C | inconclusive: -38.2%
14 | O=C(NC1CCCC1)C1CCCN(S(=O)(=O)c2cnc[nH]2)C1 (stereo not given) | inconclusive: -38.2%
15 | CC(c1ccccc1C(O)(c1ccccc1)c1ccccc1)N(C)C (stereo not given) | inactive: 81.7%
16 | COc1cc(/C=C/C(=O)Nc2nc3ccc(S(=O)(=O)N(C)C)cc3s2)cc(OC)c1OC | inconclusive: -52.1%
17 | COc1ccc(NC(=S)N(CCCN2CCCCC2)Cc2cccs2)cc1 | active: -105%
18 | O=S(=O)(CCc1nc2ccccc2o1)c1ccc(Cl)c(Cl)c1 | inconclusive: -34.2%
19 | O=C(O)C1CCC(=O)N1C1CCCC1 (stereo not given) | inconclusive: -65.8%
20 | CCOC(=O)C1CCCN(CCC(=O)Nc2ccccc2)C1 (stereo not given) | inactive: 28.5%

Row | SMILES | activity change (PNC), negative = inhibition
21 | Cn1nc2c(c1C(=O)O)CCCC2 | inconclusive: -51.1%
22 | Cc1ccc(-c2nnc(COc3cccc(-n4cnnn4)c3)o2)cc1 | active: -103%
23 | CN(C)c1nc(OCCNC(=O)Nc2ccccc2)nc(N2CCOCC2)n1 | inactive: 1.26%
24 | O=C1/C(=C\c2cccnc2)CN(Cc2ccccc2)C/C1=C\c1cccnc1 | active: -112%
25 | O=C(Nc1ccc(-c2nnc3n2CCCCC3)cc1)c1ccco1 | inactive: -16.7%
26 | c1ccc2sc(SN3CCOCC3)nc2c1 | inconclusive: -54.4%
27 | Cc1c(C(=O)OCC(C)(C)CN(C)C)oc2ccccc12 | inconclusive: -33.9%
28 | NC(=O)C1(N2CCCCC2)CCN(C(=S)Nc2cccc(Cl)c2)CC1 | inconclusive: -42.8%
29 | Cc1ccc2nc(NC(=O)CCNS(=O)(=O)c3ccc(Br)s3)sc2c1 | inconclusive: -35.4%
30 | NC1=NS(=O)(=O)NC1c1cccc(Cl)c1 (stereo not given) | inconclusive: -46.8%
31 | Cc1ccc(N2C(=O)[C@@H]3C(C(=O)C(c4ccccc4)c4ccccc4)=NN[C@@H]3C2=O)cc1 | inconclusive: -37.9%
32 | CCc1nc(N)nc(N)c1-c1ccc(Cl)cc1 | inconclusive: -49.1%
33 | O=c1[nH]c(/C=C/c2ccccc2OC(F)F)nc2c1cnn2-c1ccccc1 | inactive: 10.4%
34 | O=C(CCc1ccc(S(=O)(=O)NCc2ccccc2)cc1)NCC1CCCO1 (stereo not given) | active: -106%
35 | Cc1cccc(CSc2nnc(Cn3c(=O)sc4ccccc43)n2C)c1 | inconclusive: -48.2%
36 | O=C(NCCCN1CCN(CCCNC(=O)c2cccc(Cl)c2)CC1)c1cccc(Cl)c1 | inconclusive: -59.8%
37 | CCOC(=O)c1ccc(NC(=S)Nc2ccccn2)cc1 | inconclusive: -32.7%
38 | Cc1ccc(N2CSC3=C(C#N)C(c4cccs4)CC(=O)N3C2)cc1 (stereo not given) | inconclusive: -31.8%
39 | COc1ccc(-c2nnc(OCc3ccccc3)c3ccccc23)cc1 | active: -87.7%
40 | COc1cccc(Cn2c(OCC3CCCO3)nc3c2c(=O)n(C)c(=O)n3C)c1 (stereo not given) | inactive: -24.1%

Row | SMILES | activity change (PNC), negative = inhibition
41 | CC(=O)c1cc2c(cc1NS(=O)(=O)c1ccc(C)cc1)OCCO2 | inconclusive: -53.2%
42 | O=C1c2ccccc2C2=Nc3ccccc3SC(c3cccc(F)c3)C12 (stereo not given) | inconclusive: -69.8%
43 | Cc1ccc(NC(=O)/C(CN(C)C)=N\O)cc1 | inconclusive: -38.6%
44 | O=C(CN1C(=O)NC2(CCCCCC2)C1=O)NCc1cccs1 | inactive: -4.41%
45 | COc1cc(/C=N/NC(N)=S)cc(Br)c1OCc1ccccc1F | inconclusive: -72.8%
46 | COc1ccccc1C(=O)OCCN1CCOCC1 | inconclusive: -56.5%
47 | Cc1ccc(C2NC(=O)Cc3ccccc32)cc1 (stereo not given) | inactive: 17%
48 | CC(=O)NCC1=C(NC(C)=O)C2CC1C(C)(C)C2C (stereo not given) | inconclusive: -50.1%
49 | CC(Oc1ccc(Cl)cc1Cl)C(=O)N(Cc1ccco1)C1CCS(=O)(=O)C1 (stereo not given) | inconclusive: -31.2%
50 | COc1cccc(-c2nc(-c3ccc(NC(=O)Cc4ccccc4OC)cc3)no2)c1 | inconclusive: -35.4%
51 | N#Cc1cccc(C(c2nnnn2C2CCCC2)N2CCC(Cc3ccccc3)CC2)c1 (stereo not given) | active: -100%
52 | Cc1cccc(N2CCN(C(=O)c3ccc(Cl)c(S(=O)(=O)N4CCc5ccccc5C4)c3)CC2)c1C | inactive: 18.9%
53 | CC(=O)N1CCN(c2ccc(NC(=S)NC(=O)/C=C/c3ccccc3)cc2)CC1 | inconclusive: -64.4%
54 | CC(C)c1ccc(C(C(=O)NC2CCCC2)N(C(=O)CNC(=O)c2ccco2)c2cccnc2)cc1 (stereo not given) | inconclusive: -39.2%
55 | CC(C)CC(=O)Nc1ccc(-c2cn3ccsc3n2)cc1 | inconclusive: -37.2%
56 | COCCNC(=O)C1CC(c2ccc(F)cc2)=NO1 (stereo not given) | inconclusive: -56.6%
57 | Cc1ccc(/C=N/Nc2nc3ccccc3s2)o1 | inactive: 48.4%
58 | Cc1cccc(N2CCN(C(=O)c3ccoc3C)CC2)c1C | inactive: 42%
59 | CCNC(=S)N/N=C/c1c(Cl)cccc1Cl | inactive: -10.3%
60 | Cc1ccc(C)c(N2CCN(C(=O)C3CCCN(S(=O)(=O)c4c(C)[nH]c(=O)[nH]c4=O)C3)CC2)c1 (stereo not given) | active: -86.3%

Numbers 46 to 47 of the list above:
Row | SMILES | activity change (PNC), negative = inhibition
46 | COc1ccccc1C(=O)OCCN1CCOCC1 | inconclusive: -56.5%
47 | Cc1ccc(C2NC(=O)Cc3ccccc32)cc1 (stereo not given) | inactive: 17%
